{"source": "PubChem BioAssay AID652243 (Drosophila RNAi Screening Center, 2013)", "aim": "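Knock-downs that decrease or increase androgen receptor reporter signal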 (primary screen)", "cells": "Drosophila S2R+ cells", "reagents": "long dsRNA against Drosophila genes", "time to read-out": "72 h (48 h, then 24 h hormone)", "conditions": "synthetic androgen R1881 at 10 nM for 24 h", "measurement": "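Per-well raw luminescence of the androgen-driven firefly reporter and of the Renilla control, two replicates each, without normalisation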", "direction": "firefly reporter light: higher = more light from androgen-responsive reporter; Renilla control light: higher = more constitutive control signal (cell number, transfection)", "call rule": "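Across duplicate plates, a knock-down whose log firefly/Renilla ratio shifted a set fold down or up from the GFP/LacZ control mean was a hit; the downward cut appears as both 1.5 and 3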", "calls": "active = hit: reporter lowered or raised; inactive = no hit", "note": "The deposit covers about 24,000 reagents; below is a random part of those that have a named target and a result. Over the whole deposit, 246 (1%) got an active call. 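Plates not normalised; calls are printed but the firefly/Renilla ratio behind them is not deposited; fold cut for lowering reported inconsistently.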 Raw values vary from plate to plate and are shown uncorrected. Not stated in the record: the amount of reagent."}
{"gene knocked down":"poe","amplicon":"DRSC03593","firefly reporter light, replicate 1":1.38e6,"firefly reporter light, replicate 2":1.05e6,"Renilla control light, replicate 1":2.61e6,"Renilla control light, replicate 2":2.75e6,"call":"inactive"}
{"gene knocked down":"poe","amplicon":"DRSC28537","firefly reporter light, replicate 1":1.40e5,"firefly reporter light, replicate 2":2.58e5,"Renilla control light, replicate 1":5.50e5,"Renilla control light, replicate 2":9.21e5,"call":"active"}
{"gene knocked down":"CG10927","amplicon":"DRSC06014","firefly reporter light, replicate 1":9.64e5,"firefly reporter light, replicate 2":1.10e6,"Renilla control light, replicate 1":2.96e6,"Renilla control light, replicate 2":2.69e6,"call":"inactive"}
{"gene knocked down":"CG10927","amplicon":"DRSC29800","firefly reporter light, replicate 1":3.25e5,"firefly reporter light, replicate 2":5.06e5,"Renilla control light, replicate 1":9.75e5,"Renilla control light, replicate 2":1.39e6,"call":"inactive"}
{"gene knocked down":"CG3491","amplicon":"DRSC01934","firefly reporter light, replicate 1":94925,"firefly reporter light, replicate 2":1.17e5,"Renilla control light, replicate 1":1.13e6,"Renilla control light, replicate 2":1.35e6,"call":"inactive"}
{"gene knocked down":"CG15535","amplicon":"DRSC15071","firefly reporter light, replicate 1":3.22e5,"firefly reporter light, replicate 2":2.86e5,"Renilla control light, replicate 1":2.41e6,"Renilla control light, replicate 2":3.45e6,"call":"inactive"}
{"gene knocked down":"comm","amplicon":"DRSC11336","firefly reporter light, replicate 1":1.58e5,"firefly reporter light, replicate 2":1.02e5,"Renilla control light, replicate 1":1.71e6,"Renilla control light, replicate 2":1.31e6,"call":"inactive"}
{"gene knocked down":"comm","amplicon":"DRSC24259","firefly reporter light, replicate 1":4.04e5,"firefly reporter light, replicate 2":2.93e5,"Renilla control light, replicate 1":6.77e5,"Renilla control light, replicate 2":4.75e5,"call":"inactive"}
{"gene knocked down":"Spn42Dd","amplicon":"DRSC05024","firefly reporter light, replicate 1":3.79e5,"firefly reporter light, replicate 2":3.60e5,"Renilla control light, replicate 1":2.69e6,"Renilla control light, replicate 2":2.63e6,"call":"inactive"}
{"gene knocked down":"Spn42Dd","amplicon":"DRSC22060","firefly reporter light, replicate 1":9.43e5,"firefly reporter light, replicate 2":8.30e5,"Renilla control light, replicate 1":2.13e6,"Renilla control light, replicate 2":2.08e6,"call":"inactive"}
{"gene knocked down":"pll","amplicon":"DRSC17026","firefly reporter light, replicate 1":1.14e5,"firefly reporter light, replicate 2":89598,"Renilla control light, replicate 1":9.99e5,"Renilla control light, replicate 2":9.89e5,"call":"inactive"}
{"gene knocked down":"pll","amplicon":"DRSC28551","firefly reporter light, replicate 1":4.23e5,"firefly reporter light, replicate 2":8.74e5,"Renilla control light, replicate 1":8.45e5,"Renilla control light, replicate 2":1.57e6,"call":"inactive"}
{"gene knocked down":"CG9578","amplicon":"DRSC20694","firefly reporter light, replicate 1":1.04e5,"firefly reporter light, replicate 2":1.45e5,"Renilla control light, replicate 1":9.21e5,"Renilla control light, replicate 2":1.05e6,"call":"inactive"}
{"gene knocked down":"CG9578","amplicon":"DRSC29540","firefly reporter light, replicate 1":2.99e5,"firefly reporter light, replicate 2":3.74e5,"Renilla control light, replicate 1":6.86e5,"Renilla control light, replicate 2":6.86e5,"call":"inactive"}
{"gene knocked down":"CG8152","amplicon":"DRSC07083","firefly reporter light, replicate 1":59642,"firefly reporter light, replicate 2":69074,"Renilla control light, replicate 1":1.39e6,"Renilla control light, replicate 2":1.39e6,"call":"inactive"}
{"gene knocked down":"sad","amplicon":"DRSC16630","firefly reporter light, replicate 1":1.10e5,"firefly reporter light, replicate 2":1.71e5,"Renilla control light, replicate 1":2.30e6,"Renilla control light, replicate 2":2.65e6,"call":"inactive"}
{"gene knocked down":"sad","amplicon":"DRSC28569","firefly reporter light, replicate 1":2.36e5,"firefly reporter light, replicate 2":4.47e5,"Renilla control light, replicate 1":4.42e5,"Renilla control light, replicate 2":1.19e6,"call":"inactive"}
{"gene knocked down":"L (retired record)","amplicon":"DRSC05966","firefly reporter light, replicate 1":30946,"firefly reporter light, replicate 2":46146,"Renilla control light, replicate 1":9.18e5,"Renilla control light, replicate 2":9.18e5,"call":"inactive"}
{"gene knocked down":"L (retired record)","amplicon":"DRSC25281","firefly reporter light, replicate 1":2.80e5,"firefly reporter light, replicate 2":3.19e5,"Renilla control light, replicate 1":3.09e5,"Renilla control light, replicate 2":2.53e5,"call":"inactive"}
{"gene knocked down":"CG32507","amplicon":"DRSC20421","firefly reporter light, replicate 1":5.60e5,"firefly reporter light, replicate 2":5.04e5,"Renilla control light, replicate 1":2.94e6,"Renilla control light, replicate 2":3.80e6,"call":"inactive"}
{"gene knocked down":"Smyd4-2","amplicon":"DRSC10126","firefly reporter light, replicate 1":1.69e5,"firefly reporter light, replicate 2":1.36e5,"Renilla control light, replicate 1":6.88e5,"Renilla control light, replicate 2":1.15e6,"call":"inactive"}
{"gene knocked down":"Smyd4-2","amplicon":"DRSC25934","firefly reporter light, replicate 1":3.71e5,"firefly reporter light, replicate 2":5.05e5,"Renilla control light, replicate 1":6.72e5,"Renilla control light, replicate 2":8.04e5,"call":"inactive"}
{"gene knocked down":"alka","amplicon":"DRSC06136","firefly reporter light, replicate 1":2.00e5,"firefly reporter light, replicate 2":1.53e5,"Renilla control light, replicate 1":1.49e6,"Renilla control light, replicate 2":1.34e6,"call":"inactive"}
{"gene knocked down":"CG15308","amplicon":"DRSC17995","firefly reporter light, replicate 1":3.81e5,"firefly reporter light, replicate 2":3.51e5,"Renilla control light, replicate 1":3.03e6,"Renilla control light, replicate 2":2.05e6,"call":"inactive"}
{"gene knocked down":"CG11379","amplicon":"DRSC18629","firefly reporter light, replicate 1":1.11e5,"firefly reporter light, replicate 2":1.11e5,"Renilla control light, replicate 1":2.85e6,"Renilla control light, replicate 2":2.34e6,"call":"inactive"}
{"gene knocked down":"CG14572","amplicon":"DRSC11733","firefly reporter light, replicate 1":1.64e5,"firefly reporter light, replicate 2":1.68e5,"Renilla control light, replicate 1":2.05e6,"Renilla control light, replicate 2":1.91e6,"call":"inactive"}
{"gene knocked down":"CG43693","amplicon":"DRSC09086","firefly reporter light, replicate 1":2.81e5,"firefly reporter light, replicate 2":1.93e5,"Renilla control light, replicate 1":3.89e5,"Renilla control light, replicate 2":3.85e5,"call":"inactive"}
{"gene knocked down":"CG43693","amplicon":"DRSC10625","firefly reporter light, replicate 1":9.77e5,"firefly reporter light, replicate 2":7.28e5,"Renilla control light, replicate 1":1.20e6,"Renilla control light, replicate 2":1.78e6,"call":"inactive"}
{"gene knocked down":"CG43693","amplicon":"DRSC38675","firefly reporter light, replicate 1":9.14e5,"firefly reporter light, replicate 2":7.93e5,"Renilla control light, replicate 1":2.11e6,"Renilla control light, replicate 2":2.23e6,"call":"inactive"}

Copied from above, 3 entries:
{"gene knocked down":"comm","amplicon":"DRSC24259","firefly reporter light, replicate 1":4.04e5,"firefly reporter light, replicate 2":2.93e5,"Renilla control light, replicate 1":6.77e5,"Renilla control light, replicate 2":4.75e5,"call":"inactive"}
{"gene knocked down":"Spn42Dd","amplicon":"DRSC05024","firefly reporter light, replicate 1":3.79e5,"firefly reporter light, replicate 2":3.60e5,"Renilla control light, replicate 1":2.69e6,"Renilla control light, replicate 2":2.63e6,"call":"inactive"}
{"gene knocked down":"Spn42Dd","amplicon":"DRSC22060","firefly reporter light, replicate 1":9.43e5,"firefly reporter light, replicate 2":8.30e5,"Renilla control light, replicate 1":2.13e6,"Renilla control light, replicate 2":2.08e6,"call":"inactive"}
